Laboratory results published in US20260053801A1, “METHOD FOR TREATING AUTOPHAGY DEPENDENT CANCER WITH A PIKFYVE INHIBITOR” (The Regents of the University of Michigan, priority 2023, published 2026).
At least one structure is not confirmed: it was looked up by name or label, or the drawing left a doubt.

Tests used:
[1] = system: UM-19 primary KRAS G12D PDAC CDX; test: UM-19 primary KRAS G12D PDAC CDX (pCDX) subcutaneous model; format: in vivo, human; settings: ESK981 30 mg/kg QD PO or trametinib 1 mg/kg QD PO alone
[2] = system: FASN and ACACA; test: qPCR of FASN and ACACA in PDAC cell lines treated with KRAS-MAPK inhibitors; format: cell-based; settings: eight hours; PDAC cell lines with the relevant KRAS mutation
Experimental: Total RNA was isolated from cells using the miRNeasy kit (Qiagen), and cDNA was synthesized from 1000 ng of total RNA using Maxima First Strand cDNA Synthesis Kit for RT-qPCR (Thermo Fisher Scientific). Quantitative real-time PCR was performed in triplicates using standard SYBR green reagents and protocols on a QuantStudio 5 Real-Time PCR system (Applied Biosystems). The target mRNA expression was quantified using the ΔΔCt method and normalized to ACTB (human) or Actb (murine) expression. All primers were designed using Primer 3 (http://frodo.wi.mit.edu/primer3/) and synthesized by Integrated DNA Technologies (Coralville).

[3] = system: autophagic flux in Panc 04.03 cells; test: GFP-LC3-RFP-LC3ΔG autophagic flux probe assay in Panc 04.03 cells; format: cell-based, human; settings: MRTX1133 300 nM or trametinib 25 nM, 24 hours
From the text: (§1) Generation of the autophagic flux probe in 7940B, Panc 04.03, and iKRAS was done according to the original author's instructions. Kaizuka, T. et al., Mol Cell 64, 835-849, doi:10.1016/j.molcel.2016.09.037 (2016). Briefly, cells were infected with pMRX-IP-GFP-LC3-RFP-LC3DG, which was a gift from Noboru Mizushima (Addgene plasmid #84572; http://n2t.net/addgene:84572; RRID:Addgene_84572). Following puromycin selection, single-cell clones were expanded and genotyped to ensure the absence of homologous recombination between two LC3 fragments during retrovirus integration.
(§2) 15,000 cells were seeded in 96-well plates. After overnight incubation, cells were treated with the indicated compounds for 24 hours. […] Fluorescent signals were detected using the Infinite M1000 Pro plate reader (Tecan).

[4] = system: autophagic flux in 7940B cells; test: GFP-LC3-RFP-LC3ΔG autophagic flux probe assay in 7940B cells; format: cell-based, mouse; settings: MRTX1133 300 nM or trametinib 25 nM, 24 hours
From the text: as §1, §2

CC(=O)Nc1cccc(-n2c(=O)n(C3CC3)c(=O)c3c(Nc4ccc(I)cc4F)n(C)c(=O)c(C)c32)c1 [trametinib]
tumor outgrowth under single-agent therapy [1]: adapt and outgrow
transcription of FASN and ACACA [2]: decreased transcription of FASN and ACACA
autophagic flux upon KRAS-MAPK inhibition [3]: induced autophagic flux
autophagic flux upon KRAS-MAPK inhibition [4]: induced autophagic flux
